From patent US20200405868A1, “GEL-FORMING POLYPEPTIDES” (priority 2018, published 2020)

Test: Release assay with Centricon Centrifugal Filter Units (FITC-labeled molecules with carrier peptide)
[1] = FITC-labeled GnRH, carrier 1mg/10ml, lower chamber
[2] = FITC-labeled GnRH, carrier 1mg/100ml, lower chamber
[3] = FITC-labeled Morpholino, carrier 1mg/10ml, lower chamber
[4] = FITC-labeled Morpholino, carrier 1mg/100ml, lower chamber
[5] = FITC-labeled dUTP, carrier 1mg/10ml, lower chamber
[6] = FITC-labeled dUTP, carrier 1mg/100ml, lower chamber

| Substance | Fluorescent Reading (average of duplicates) (FITC-labeled Dexmethasone, carrier 1mg/10ml) | Fluorescent Reading (average of duplicates) (FITC-labeled Naloxone, carrier 1mg/10ml) | Fluorescent Reading (average of duplicates) (FITC-labeled Dexmethasone, carrier 1mg/100ml) | Fluorescent Reading (average of duplicates) [1] | Fluorescent Reading (average of duplicates) [2] | Fluorescent Reading (average of duplicates) [3] | Fluorescent Reading (average of duplicates) [4] | Fluorescent Reading (average of duplicates) (FITC-labeled Naloxone, carrier 1mg/100ml) | Fluorescent Reading (average of duplicates) [5] | Fluorescent Reading (average of duplicates) [6] |
| --- | --- | --- | --- | --- | --- | --- | --- | --- | --- | --- |
| Pal-KVQKLSAPVDPSSPHSY-NH2 [SEQ ID NO:109] | 4.29 | 1.38 | – | – | – | – | – | – | – | – |
| Pal-SSPHSY-NH2 [SEQ ID NO:119] | – | – | 1.60 | 9.00 | 58.37 | 5.56 | 15.83 | 0.60 | 0.14 | 2.67 |
| Pal-VGSNTY-NH2 [SEQ ID NO:133] | – | – | – | 55.43 | 70.95 | 22.31 | 20.25 | – | 9.22 | 6.23 |
